Part of at least one peptide drawing is inferred or uncertain, most often the ends. Ends that are not written are not given here.
Legend:
[1] = test system: peroxisome proliferators activated receptor γ (PPARγ); experiment: RT-PCR of adipocyte differentiation marker PPARγ in mesenchymal stem cells; assay type: cell-based; conditions: agarose gel, as peptide concentration increased, control GAPDH did not change, FIG. 2
[2] = test system: mesenchymal stem cells (MSCs); experiment: Adipocyte differentiation inhibition in mesenchymal stem cells, Oil Red O staining; assay type: cell-based; conditions: MSCs in adipocyte differentiation medium for 14 days, as peptide concentration increased (0, 10, 100, 200 μg/mL)
ovariectomized ICR mice = experiment: Fat accumulation inhibition in ovariectomized (estrogen-deficient) mice; assay type: in vivo; conditions: OVX mice, peptide 60 or 600 μg/25 g mouse intraabdominally twice a week for 8 weeks
[3] = test system: adipocyte protein 2 (aP2); experiment: RT-PCR of adipocyte differentiation marker aP2 in mesenchymal stem cells; assay type: cell-based; conditions: agarose gel, as peptide concentration increased, control GAPDH did not change, FIG. 2

YGLRSKSKKFRRPDIQYPDAT [peptide]
expression of adipocyte differentiation marker gene PPARγ [1]: decreased
accumulation of the fat stained with Oil red O (microscopic observation) ([2]; FIG. 1A): decreased
absorbance at 510 nm of dissolved Oil Red O-stained fat ([2]; FIG. 1B): decreased
total fat weight (ovariectomized ICR mice; versus OVX-PBS group, FIG. 4): significantly decreased
total fat/body weight (ovariectomized ICR mice; versus OVX-PBS group, FIG. 5): significantly decreased
subcutaneous fat weight (ovariectomized ICR mice; versus ovariectomized test group, FIGS. 6 and 7): decreased
expression of adipocyte differentiation marker gene aP2 [3]: decreased
